# From the supplement of paper PMC8728848
# This is one part of the list.
# B1: MtEccB1 (Mycobacterium tuberculosis H37Rv), O69734 (protein)
# chain: MGLRLTTKVQVSGWRFLLRRLEHAIVRRDTRMFDDPLQFYSRSIALGIVVAVLILAGAALLAYFKPQGKLGGTSLFTDRATNQLYVLLSGQLHPVYNLTSARLVLGNPANPATVKSSELSKLPMGQTVGIPGAPYATPVSAGSTSIWTLCDTVARADSTSPVVQTAVIAMPLEIDASIDPLQSHEAVLVSYQGETWIVTTKGRHAIDLTDRALTSSMGIPVTARPTPISEGMFNALPDMGPWQLPPIPAAGAPNSLGLPDDLVIGSVFQIHTDKGPQYYVVLPDGIAQVNATTAAALRATQAHGLVAPPAMVPSLVVRIAERVYPSPLPDEPLKIVSRPQDPALCWSWQRSAGDQSPQSTVLSGRHLPISPSAMNMGIKQIHGTATVYLDGGKFVALQSPDPRYTESMYYIDPQGVRYGVPNAETAKSLGLSSPQNAPWEIVRLLVDGPVLSKDAALLEHDTLPADPSPRKVPAGASGAP
# Assays:
# Experiment in all cases: glycan array binding signal (z-score within array); higher = stronger binding
# Conditions in all cases: glycan notation: IUPAC condensed, linker removed
# [1] = target: Neu5Ac(a2-6)Gal(b1-4)GlcNAc(b1-3)Gal(b1-4)GlcNAc(b1-3)Gal(b1-4)GlcNAc
# How it was run: (§1)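 The binding signal is a Z-score computed within each array and averaged over linkers. Arrays of the same protein sequence at different concentrations or buffers were also averaged together. Data originate from 3228 arrays in the Consortium for Functional Glycomics database, kept only where the protein sequence was available.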
# [2] = target: Neu5Ac(a2-6)Gal(b1-4)GlcNAc(b1-3)Gal(b1-4)GlcNAc(b1-3)Gal(b1-4)GlcNAc(b1-2)Man(a1-3)[Neu5Ac(a2-6)Gal(b1-4)GlcNAc(b1-3)Gal(b1-4)GlcNAc(b1-3)Gal(b1-4)GlcNAc(b1-2)Man(a1-6)]GalNAc
# How it was run: as §1
# [3] = target: Neu5Ac(a2-6)Gal(b1-4)GlcNAc(b1-3)Gal(b1-4)GlcNAc(b1-3)GalNAc
# How it was run: as §1
# [4] = target: Neu5Ac(a2-6)Gal(b1-4)GlcNAc(b1-3)Gal(b1-4)GlcNAc(b1-3)[Neu5Ac(a2-6)Gal(b1-4)GlcNAc(b1-3)Gal(b1-4)GlcNAc(b1-6)]GalNAc
# How it was run: as §1
# [5] = target: Neu5Ac(a2-6)Gal(b1-4)GlcNAc(b1-3)Gal(b1-4)GlcNAc(b1-6)[Gal(b1-3)]GalNAc
# How it was run: as §1
# [6] = target: Neu5Ac(a2-6)Gal(b1-4)GlcNAc(b1-3)Gal(b1-4)[Fuc(a1-3)]GlcNAc(b1-3)Gal(b1-4)[Fuc(a1-3)]GlcNAc
# How it was run: as §1
# [7] = target: Neu5Ac(a2-6)Gal(b1-4)GlcNAc(b1-3)GalNAc
# How it was run: as §1
# [8] = target: Neu5Ac(a2-6)Gal(b1-4)GlcNAc(b1-3)[Neu5Ac(a2-6)Gal(b1-4)GlcNAc(b1-6)]GalNAc
# How it was run: as §1
# [9] = target: Neu5Ac(a2-6)Gal(b1-4)GlcNAc(b1-6)GalNAc
# How it was run: as §1
# [10] = target: Neu5Ac(a2-6)Gal(b1-4)GlcNAc(b1-6)[Gal(b1-3)GlcNAc(b1-3)]Gal(b1-4)Glc
# How it was run: as §1
# [11] = target: Neu5Ac(a2-6)Gal(b1-4)GlcNAc(b1-6)[Gal(b1-3)]GalNAc
# How it was run: as §1
# [12] = target: Neu5Ac(a2-6)Gal(b1-4)GlcNAc6S
# How it was run: as §1
# Neu5Ac(a2-6)GalNAc = target: Neu5Ac(a2-6)GalNAc
# How it was run: as §1
# [13] = target: Neu5Ac(a2-6)GalNAc(b1-4)GlcNAc
# How it was run: as §1
# [14] = target: Neu5Ac(a2-6)GalNAc(b1-4)GlcNAc6S
# How it was run: as §1
# [15] = target: Neu5Ac(a2-6)GlcNAc(b1-4)GlcNAc
# How it was run: as §1
# [16] = target: Neu5Ac(a2-6)GlcNAc(b1-4)GlcNAc(b1-4)GlcNAc
# How it was run: as §1
# Neu5Ac(a2-8)Neu5Ac = target: Neu5Ac(a2-8)Neu5Ac
# How it was run: as §1
# [17] = target: Neu5Ac(a2-8)Neu5Ac(a2-3)Gal(b1-3)GalNAc(b1-4)[Neu5Ac(a2-3)]Gal(b1-4)Glc
# How it was run: as §1
# [18] = target: Neu5Ac(a2-8)Neu5Ac(a2-3)Gal(b1-3)GalNAc(b1-4)[Neu5Ac(a2-8)Neu5Ac(a2-3)]Gal(b1-4)Glc
# How it was run: as §1
# [19] = target: Neu5Ac(a2-8)Neu5Ac(a2-3)Gal(b1-4)Glc
# How it was run: as §1
# [20] = target: Neu5Ac(a2-8)Neu5Ac(a2-3)Gal(b1-4)GlcNAc
# How it was run: as §1
# [21] = target: Neu5Ac(a2-8)Neu5Ac(a2-3)[Gal(b1-3)GalNAc(b1-4)]Gal(b1-4)Glc
# How it was run: as §1
# [22] = target: Neu5Ac(a2-8)Neu5Ac(a2-3)[GalNAc(b1-4)]Gal(b1-4)Glc
# How it was run: as §1
# [23] = target: Neu5Ac(a2-8)Neu5Ac(a2-8)Neu5Ac
# How it was run: as §1
# [24] = target: Neu5Ac(a2-8)Neu5Ac(a2-8)Neu5Ac(a2-3)Gal(b1-4)Glc
# How it was run: as §1
# [25] = target: Neu5Ac(a2-8)Neu5Ac(a2-8)Neu5Ac(a2-3)[Gal(b1-3)GalNAc(b1-4)]Gal(b1-4)Glc
# How it was run: as §1
# [26] = target: Neu5Ac(a2-8)Neu5Ac(a2-8)Neu5Ac(a2-3)[GalNAc(b1-4)]Gal(b1-4)Glc
# How it was run: as §1
# [27] = target: Neu5Ac(a2-8)Neu5Ac(a2-8)Neu5Ac(a2-8)Neu5Ac(a2-3)[GalNAc(b1-4)]Gal(b1-4)Glc
# How it was run: as §1
# [28] = target: Neu5Ac(a2-8)Neu5Gc(a2-3)Gal(b1-4)GlcNAc
# How it was run: as §1
# [29] = target: Neu5Ac(b2-6)Gal(b1-4)GlcNAc
# How it was run: as §1
# Neu5Ac(b2-6)GalNAc = target: Neu5Ac(b2-6)GalNAc
# How it was run: as §1
# [30] = target: Neu5Ac9Ac(a2-3)Gal(b1-3)GlcNAc
# How it was run: as §1
# [31] = target: Neu5Ac9Ac(a2-3)Gal(b1-4)GlcNAc
# How it was run: as §1
# [32] = target: Neu5Ac9Ac(a2-6)Gal(b1-4)GlcNAc
# How it was run: as §1
# [33] = target: Neu5Gc(a2-3)Gal(b1-3)GlcNAc
# How it was run: as §1
# [34] = target: Neu5Gc(a2-3)Gal(b1-3)[Fuc(a1-4)]GlcNAc
# How it was run: as §1
# Neu5Gc(a2-3)Gal(b1-4)Glc = target: Neu5Gc(a2-3)Gal(b1-4)Glc
# How it was run: as §1
# [35] = target: Neu5Gc(a2-3)Gal(b1-4)GlcNAc
# How it was run: as §1
# [36] = target: Neu5Gc(a2-3)Gal(b1-4)GlcNAc(b1-3)Gal(b1-4)GlcNAc(b1-2)Man(a1-3)[Neu5Gc(a2-3)Gal(b1-4)GlcNAc(b1-3)Gal(b1-4)GlcNAc(b1-2)Man(a1-6)]Man(b1-4)GlcNAc(b1-4)GlcNAc
# How it was run: as §1
# [37] = target: Neu5Gc(a2-3)Gal(b1-4)[Fuc(a1-3)]GlcNAc
# How it was run: as §1
# [38] = target: Neu5Gc(a2-6)Gal(b1-4)GlcNAc
# How it was run: as §1
# Neu5Gc(a2-6)GalNAc = target: Neu5Gc(a2-6)GalNAc
# How it was run: as §1
# [39] = target: Neu5Gc(a2-8)Neu5Ac(a2-3)Gal(b1-4)GlcNAc
# How it was run: as §1
# [40] = target: Neu5Gc(a2-8)Neu5Gc(a2-3)Gal(b1-4)GlcNAc
# How it was run: as §1
binder,measurement,setting,value
B1,glycan array binding signal (z-score),[1],0.589
same,glycan array binding signal (z-score),[2],2.47
same,glycan array binding signal (z-score),[3],0.326
same,glycan array binding signal (z-score),[4],-0.257
same,glycan array binding signal (z-score),[5],-1.25
same,glycan array binding signal (z-score),[6],0.844
same,glycan array binding signal (z-score),[7],-1.57
same,glycan array binding signal (z-score),[8],1.19
same,glycan array binding signal (z-score),[9],0.463
same,glycan array binding signal (z-score),[10],-0.947
same,glycan array binding signal (z-score),[11],-0.358
same,glycan array binding signal (z-score),[12],-0.979
same,glycan array binding signal (z-score),Neu5Ac(a2-6)GalNAc,-0.143
same,glycan array binding signal (z-score),[13],0.226
same,glycan array binding signal (z-score),[14],0.044
same,glycan array binding signal (z-score),[15],0.959
same,glycan array binding signal (z-score),[16],0.157
same,glycan array binding signal (z-score),Neu5Ac(a2-8)Neu5Ac,0.148
same,glycan array binding signal (z-score),[17],0.737
same,glycan array binding signal (z-score),[18],-0.114
same,glycan array binding signal (z-score),[19],-0.908
same,glycan array binding signal (z-score),[20],-1.13
same,glycan array binding signal (z-score),[21],1.64
same,glycan array binding signal (z-score),[22],0.156
same,glycan array binding signal (z-score),[23],-1.29
same,glycan array binding signal (z-score),[24],0.746
same,glycan array binding signal (z-score),[25],-0.823
same,glycan array binding signal (z-score),[26],-0.415
same,glycan array binding signal (z-score),[27],-0.146
same,glycan array binding signal (z-score),[28],-1.21
same,glycan array binding signal (z-score),[29],0.69
same,glycan array binding signal (z-score),Neu5Ac(b2-6)GalNAc,1.46
same,glycan array binding signal (z-score),[30],-0.651
same,glycan array binding signal (z-score),[31],-0.456
same,glycan array binding signal (z-score),[32],-0.819
same,glycan array binding signal (z-score),[33],-0.412
same,glycan array binding signal (z-score),[34],-0.232
same,glycan array binding signal (z-score),Neu5Gc(a2-3)Gal(b1-4)Glc,0.483
same,glycan array binding signal (z-score),[35],-0.509
same,glycan array binding signal (z-score),[36],-0.707
same,glycan array binding signal (z-score),[37],0.844
same,glycan array binding signal (z-score),[38],-0.129
same,glycan array binding signal (z-score),Neu5Gc(a2-6)GalNAc,-1.4
same,glycan array binding signal (z-score),[39],0.304
same,glycan array binding signal (z-score),[40],0.177

# Part of the list above, set out differently.
binder | measurement | setting | value
B1 | glycan array binding signal (z-score) | [7] | -1.57
same | glycan array binding signal (z-score) | [26] | -0.415
